The values below come from PubChem BioAssay AID256 (DTP/NCI, 2004).

The list shows only some results of the screen, not a fair sample: it gathers tests that were run many times, whatever their T/C, doses with no T/C, and many T/C values between a quarter and a half above the control. Further doses and runs are listed elsewhere. T/C: endpoint of the treated group in % of that of the vehicle group. Some doses have a count of surviving animals in place of a T/C: the source files T/C as zero there, which appears to mark a toxic dose or a test without result, not a measured value. Some doses without a T/C left all or most animals alive at the check, yet need not have been tolerated: the source hardly ever lists a survival T/C far under the control, and the zero likely stands for such cases as well. Survivors were counted at the toxicity check, usually on the fifth day, unless a day is given; later deaths do not show. Schedules are NCI's codes, taken here to give the interval after Q, in days (D) or hours (H), and the number of doses after X. Where survival is the endpoint, this PubChem deposit counts one and a half times the control or more as active, and values a quarter to a half above the control carry no call in these data; other NCI protocols may use other cut-offs. Some T/C values are followed by the survivors on the day toxicity was checked, most often the fifth; without a count, all were alive then. Some doses were run more than once; the results are listed from low to high.

The experiment concerns CD2F1 mice, L1210 leukemia ip, survival T/C. The experiment can be described thus: NCI In Vivo Anticancer Drug Screen. Data for tumor model L1210 Leukemia (intraperitoneal) in CD2F1 (CDF1) mice. Particulars: higher T/C = longer survival. The gist of the method: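 Antitumor effect is scored in animals hosting a serially transplanted tumor. Values compare compound-dosed animals against vehicle-only controls as a simple quotient.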

Setting [1] is: T/C endpoint: mean survival time, dose: 400.0 mg/kg/injection, schedule: Q04DX003 (ip), vehicle: saline with Tween-80.
[2] abbreviates: T/C endpoint: mean survival time, dose: 200.0 mg/kg/injection, schedule: Q01DX009 (ip), vehicle: saline with Tween-80.
Where [3] appears, read: T/C endpoint: mean survival time, dose: 400.0 mg/kg/injection, schedule: Q01DX009 (ip), vehicle: saline with Tween-80.
Where [4] appears, read: T/C endpoint: mean survival time, dose: 400.0 mg/kg/injection, schedule: Q04DX002 (ip), vehicle: saline with Tween-80.

With `COC(=O)C(CSC(c1ccccc1)(c1ccccc1)c1ccccc1)NC(=O)C(CC(N)=O)NC(=O)OCc1ccccc1` (stereo not given), the T/C runs as follows: (T/C endpoint: median survival time, dose: 100.0 mg/kg/injection, schedule: Q01DX009 (ip), vehicle: distilled water + Tween-80) 135 % of control; (T/C endpoint: median survival time, dose: 200.0 mg/kg/injection, schedule: Q01DX009 (ip), vehicle: distilled water + Tween-80) 131 % of control [9 of 10 alive]. The survivor count (T/C endpoint: median survival time, dose: 800.0 mg/kg/injection, schedule: Q01DX009 (ip), vehicle: distilled water + Tween-80) is reported as 1 of 10.
On to `CC(NC1=NCCO1)c1cccc2ccccc12` (stereo not given), for which the survivor count runs as follows: (T/C endpoint: mean survival time, dose: 200.0 mg/kg/injection, schedule: Q04DX003 (ip), vehicle: saline with Tween-80) 1 of 6; under setting [1], 0 of 6.
On to `CCCCCCCC(=O)OCC(=O)[C@]1(O)Cc2c(O)c3c(c(O)c2[C@@H](OC2CC(N)C(O)C(C)O2)C1)C(=O)c1c(OC)cccc1C3=O` (stereo not given in full), for which the T/C (T/C endpoint: mean survival time, dose: 0.25 mg/kg/injection, schedule: Q01DX009 (ip), vehicle: saline with Tween-80) is 130 % of control; the T/C (T/C endpoint: mean survival time, dose: 0.5 mg/kg/injection, schedule: Q01DX009 (ip), vehicle: saline sonified) is 127 % of control; the T/C (T/C endpoint: mean survival time, dose: 0.5 mg/kg/injection, schedule: Q01DX009 (ip), vehicle: saline with Tween-80) is 138 % of control; the T/C (T/C endpoint: mean survival time, dose: 0.5 mg/kg/injection, schedule: Q04DX003 (ip), vehicle: saline with Tween-80) is 137 % of control; the T/C (T/C endpoint: mean survival time, dose: 1.0 mg/kg/injection, schedule: Q01DX009 (ip), vehicle: saline sonified) was 138 % of control; the T/C (T/C endpoint: mean survival time, dose: 1.0 mg/kg/injection, schedule: Q01DX009 (ip), vehicle: saline with Tween-80) is 138 % of control. Moreover, the T/C runs as follows: (T/C endpoint: mean survival time, dose: 1.0 mg/kg/injection, schedule: Q01DX009 (ip), vehicle: water) 125 % of control; (T/C endpoint: mean survival time, dose: 1.0 mg/kg/injection, schedule: Q04DX003 (ip), vehicle: saline with Tween-80) 132 % of control [5 of 6 alive]; (T/C endpoint: mean survival time, dose: 1.25 mg/kg/injection, schedule: Q04DX003 (ip), vehicle: saline with Tween-80) 125 % of control; (T/C endpoint: mean survival time, dose: 1.4 mg/kg/injection, schedule: Q04DX003 (ip), vehicle: saline with Tween-80) 125 % of control; (T/C endpoint: mean survival time, dose: 2.0 mg/kg/injection, schedule: Q04DX003 (ip), vehicle: saline with Tween-80) 140 and 144 % of control [5 of 6 alive]; (T/C endpoint: mean survival time, dose: 2.5 mg/kg/injection, schedule: Q01DX001 (ip), vehicle: saline with Tween-80) 130 % of control. Besides, the T/C is 134 % of control (T/C endpoint: mean survival time, dose: 2.5 mg/kg/injection, schedule: Q04DX003 (ip), vehicle: saline with Tween-80); 134 % of control (T/C endpoint: mean survival time, dose: 4.0 mg/kg/injection, schedule: Q01DX009 (ip), vehicle: saline with Tween-80); 127 % of control (T/C endpoint: mean survival time, dose: 4.0 mg/kg/injection, schedule: Q01DX009 (ip), vehicle: water); 136 % of control (T/C endpoint: mean survival time, dose: 5.0 mg/kg/injection, schedule: Q01DX001 (ip), vehicle: saline with Tween-80); 141 % of control (T/C endpoint: mean survival time, dose: 5.0 mg/kg/injection, schedule: Q04DX003 (ip), vehicle: saline with Tween-80); 137 % of control (T/C endpoint: mean survival time, dose: 10.0 mg/kg/injection, schedule: Q01DX001 (ip), vehicle: saline with Tween-80). The T/C (T/C endpoint: mean survival time, dose: 10.0 mg/kg/injection, schedule: Q04DX003 (ip), vehicle: saline with Tween-80) was 141 % of control. Also, the survivor count is listed as 6 of 6 (T/C endpoint: mean survival time, dose: 8.0 mg/kg/injection, schedule: Q01DX009 (ip), vehicle: water) and 1 of 10 (T/C endpoint: mean survival time, dose: 40.0 mg/kg/injection, schedule: Q01DX001 (ip), vehicle: saline with Tween-80).
For the molecule `O=[N+]([O-])c1cccc2c(S(=O)(=O)O)cccc12`, under setting [1], the survivor count is on record as 3 of 6.
`CCCCCCCCCCC(=O)N1CCOCC1`: under setting [2], the survivor count is on record as 1 of 6.
As for `CC(=O)C(=O)Sc1ccccc1`, the survivor count reads like this: (T/C endpoint: mean survival time, dose: 100.0 mg/kg/injection, schedule: Q04DX002 (ip), vehicle: Klucel (hydroxypropylcellulose) (HPC)) 0 of 3; (T/C endpoint: mean survival time, dose: 200.0 mg/kg/injection, schedule: Q04DX002 (ip), vehicle: Klucel (hydroxypropylcellulose) (HPC)) 0 of 3; (T/C endpoint: mean survival time, dose: 400.0 mg/kg/injection, schedule: Q04DX002 (ip), vehicle: Klucel (hydroxypropylcellulose) (HPC)) 0 of 3.
For the molecule `CC(=O)Oc1cc([N+](=O)[O-])ccc1C(=O)O`, the survivor count under setting [3] is 2 of 6.
As for `CN(C)CCC(C#N)(c1ccccc1)c1ccccc1`, the survivor count (T/C endpoint: mean survival time, dose: 300.0 mg/kg/injection, schedule: Q01DX001 (ip), vehicle: saline) is listed as 0 of 6.
For the molecule `NC(N)=N/N=C/c1ccc(Cl)cc1`, for the setting “T/C endpoint: mean survival time, dose: 80.0 mg/kg/injection, schedule: Q01DX009 (ip), vehicle: Klucel (hydroxypropylcellulose) (HPC)”, the survivor count is 2 of 6.
Turning to `O=C(OCC#CCOC(=O)c1c(Cl)ccc(Cl)c1Cl)c1c(Cl)ccc(Cl)c1Cl`, under setting [4], the survivor count is 3 of 3.
For the molecule `COc1ccccc1[As](=O)(O)CC(O)COc1ccc(Cl)cc1Cl` (stereo not given), the survivor count (T/C endpoint: mean survival time, dose: 25.0 mg/kg/injection, schedule: Q04DX003 (ip), vehicle: saline) is given as 4 of 6.
Take `N#CCCOP(=O)(N1CC1)N1CC1`: the T/C reads like this: (T/C endpoint: mean survival time, dose: 16.0 mg/kg/injection, schedule: Q01DX009 (ip), vehicle: water) 139 % of control; (T/C endpoint: mean survival time, dose: 32.0 mg/kg/injection, schedule: Q01DX009 (ip), vehicle: water) 131 % of control; (T/C endpoint: mean survival time, dose: 62.5 mg/kg/injection, schedule: Q01DX001 (ip), vehicle: Klucel (hydroxypropylcellulose) (HPC)) 145 % of control. Further, the survivor count by setting is: (T/C endpoint: mean survival time, dose: 125.0 mg/kg/injection, schedule: Q01DX001 (ip), vehicle: Klucel (hydroxypropylcellulose) (HPC)) 2 of 6; (T/C endpoint: mean survival time, dose: 250.0 mg/kg/injection, schedule: Q01DX001 (ip), vehicle: Klucel (hydroxypropylcellulose) (HPC)) 0 of 6; (T/C endpoint: mean survival time, dose: 500.0 mg/kg/injection, schedule: Q01DX001 (ip), vehicle: Klucel (hydroxypropylcellulose) (HPC)) 1 of 6; (T/C endpoint: mean survival time, dose: 1000.0 mg/kg/injection, schedule: Q01DX001 (ip), vehicle: Klucel (hydroxypropylcellulose) (HPC)) 0 of 6.
As for `CCOC(=O)NC(=S)n1ncnc1N`, the survivor count (T/C endpoint: mean survival time, dose: 50.0 mg/kg/injection, schedule: Q04DX003 (ip), vehicle: saline) was 6 of 6.
Take `Cc1cc2nc3c4ccccc4scc-3c2cc1C`: the survivor count by setting is: (T/C endpoint: mean survival time, dose: 100.0 mg/kg/injection, schedule: Q01DX009 (ip), vehicle: saline with Tween-80) 0 of 6; under setting [2], 0 of 6; under setting [3], 0 of 6.
`N=C(N)SCc1c(Cl)c(Cl)c(Cl)c(Cl)c1Cl`: the survivor count is, setting by setting: (T/C endpoint: mean survival time, dose: 100.0 mg/kg/injection, schedule: Q04DX002 (ip), vehicle: saline with Tween-80) 3 of 3; (T/C endpoint: mean survival time, dose: 200.0 mg/kg/injection, schedule: Q04DX002 (ip), vehicle: saline with Tween-80) 1 of 3; under setting [4], 0 of 3.
On to `CCC1OCC(C(Cl)CCl)O1` (stereo not given), for which the survivor count (T/C endpoint: mean survival time, dose: 400.0 mg/kg/injection, schedule: Q01DX009 (ip), vehicle: Klucel (hydroxypropylcellulose) (HPC)) is given as 0 of 6.
For the molecule `NC(CCl)=NCCc1ccsc1`, the survivor count is 0 of 3 (T/C endpoint: mean survival time, dose: 200.0 mg/kg/injection, schedule: Q04DX002 (ip), vehicle: saline) and 0 of 3 (T/C endpoint: mean survival time, dose: 400.0 mg/kg/injection, schedule: Q04DX002 (ip), vehicle: saline).
With `CN(C)[C-]=O.[C-]#[O+].[C-]#[O+].[Fe+6].[c-]1[c-][c-][cH-][c-]1`, the survivor count (T/C endpoint: mean survival time, dose: 300.0 mg/kg/injection, schedule: Q01DX001 (ip), vehicle: other) is 3 of 6.
For `COC(=O)Nc1cc2c3c(c1)CCCN3CCC2`, under setting [1], the survivor count was 4 of 6.
